Literature values as cited in patent US5612188A, “Automated, multicompartmental cell culture system” (Cornell Research Foundation, Inc., priority 1994, dated 1997).
At least one read-out could not be matched to a standard name with certainty.

Tested on: male Swiss-Webser mice
Conditions: ip; cited from earlier work

Compound: c1ccc2ccccc2c1 [naphthalene]
- LD50: 380 mg/kp
